Reference: the supplement of paper PMC6411743
± gives the standard deviation of the averaged measurements. Only a part is listed here, and it is no random draw. Most values lie at the level of the controls, where differences are scatter.

Chains of the proteins cited; added tags and fusions are not shown. Lines headed by an entry give the natural chain unless they say otherwise; changes in a name come on top.
UniProt P27695, whole entry: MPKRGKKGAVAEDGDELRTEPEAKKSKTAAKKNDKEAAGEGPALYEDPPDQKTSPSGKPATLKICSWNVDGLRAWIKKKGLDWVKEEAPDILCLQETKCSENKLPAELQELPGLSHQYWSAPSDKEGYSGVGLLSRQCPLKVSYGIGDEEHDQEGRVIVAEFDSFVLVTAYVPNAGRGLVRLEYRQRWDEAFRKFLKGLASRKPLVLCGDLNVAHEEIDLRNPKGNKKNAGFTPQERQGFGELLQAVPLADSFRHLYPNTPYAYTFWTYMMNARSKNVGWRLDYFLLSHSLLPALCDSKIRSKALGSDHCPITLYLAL
UniProt P51825: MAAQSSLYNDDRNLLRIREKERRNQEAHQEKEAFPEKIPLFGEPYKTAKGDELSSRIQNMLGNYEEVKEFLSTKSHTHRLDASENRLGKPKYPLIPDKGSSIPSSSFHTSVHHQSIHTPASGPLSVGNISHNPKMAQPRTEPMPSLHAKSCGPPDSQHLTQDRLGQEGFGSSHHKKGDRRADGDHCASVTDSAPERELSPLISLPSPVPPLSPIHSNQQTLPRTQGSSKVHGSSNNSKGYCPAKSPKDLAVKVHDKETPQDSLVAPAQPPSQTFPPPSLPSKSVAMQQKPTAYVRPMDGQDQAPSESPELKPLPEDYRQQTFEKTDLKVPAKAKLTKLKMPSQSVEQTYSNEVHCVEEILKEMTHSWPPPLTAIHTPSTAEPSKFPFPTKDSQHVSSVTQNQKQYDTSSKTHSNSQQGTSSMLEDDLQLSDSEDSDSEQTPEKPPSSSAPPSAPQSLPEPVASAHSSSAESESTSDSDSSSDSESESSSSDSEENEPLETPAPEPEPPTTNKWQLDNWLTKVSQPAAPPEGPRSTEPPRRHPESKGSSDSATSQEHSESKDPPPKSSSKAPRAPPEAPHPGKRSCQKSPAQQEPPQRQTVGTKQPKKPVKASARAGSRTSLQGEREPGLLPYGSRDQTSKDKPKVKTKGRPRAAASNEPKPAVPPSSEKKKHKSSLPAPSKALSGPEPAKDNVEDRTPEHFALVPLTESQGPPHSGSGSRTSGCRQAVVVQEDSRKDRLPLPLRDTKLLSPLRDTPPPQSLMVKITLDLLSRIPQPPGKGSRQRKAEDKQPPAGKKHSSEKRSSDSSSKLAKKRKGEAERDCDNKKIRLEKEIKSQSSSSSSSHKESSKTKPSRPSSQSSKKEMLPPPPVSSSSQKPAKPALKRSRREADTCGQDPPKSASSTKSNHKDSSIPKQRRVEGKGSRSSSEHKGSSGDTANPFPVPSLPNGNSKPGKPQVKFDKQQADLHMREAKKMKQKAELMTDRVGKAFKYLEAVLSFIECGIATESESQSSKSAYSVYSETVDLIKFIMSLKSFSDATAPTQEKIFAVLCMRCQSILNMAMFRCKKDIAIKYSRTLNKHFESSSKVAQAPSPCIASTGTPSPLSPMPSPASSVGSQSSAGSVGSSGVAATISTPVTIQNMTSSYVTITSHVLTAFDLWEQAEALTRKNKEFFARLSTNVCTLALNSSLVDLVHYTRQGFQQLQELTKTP
UniProt Q8ND30: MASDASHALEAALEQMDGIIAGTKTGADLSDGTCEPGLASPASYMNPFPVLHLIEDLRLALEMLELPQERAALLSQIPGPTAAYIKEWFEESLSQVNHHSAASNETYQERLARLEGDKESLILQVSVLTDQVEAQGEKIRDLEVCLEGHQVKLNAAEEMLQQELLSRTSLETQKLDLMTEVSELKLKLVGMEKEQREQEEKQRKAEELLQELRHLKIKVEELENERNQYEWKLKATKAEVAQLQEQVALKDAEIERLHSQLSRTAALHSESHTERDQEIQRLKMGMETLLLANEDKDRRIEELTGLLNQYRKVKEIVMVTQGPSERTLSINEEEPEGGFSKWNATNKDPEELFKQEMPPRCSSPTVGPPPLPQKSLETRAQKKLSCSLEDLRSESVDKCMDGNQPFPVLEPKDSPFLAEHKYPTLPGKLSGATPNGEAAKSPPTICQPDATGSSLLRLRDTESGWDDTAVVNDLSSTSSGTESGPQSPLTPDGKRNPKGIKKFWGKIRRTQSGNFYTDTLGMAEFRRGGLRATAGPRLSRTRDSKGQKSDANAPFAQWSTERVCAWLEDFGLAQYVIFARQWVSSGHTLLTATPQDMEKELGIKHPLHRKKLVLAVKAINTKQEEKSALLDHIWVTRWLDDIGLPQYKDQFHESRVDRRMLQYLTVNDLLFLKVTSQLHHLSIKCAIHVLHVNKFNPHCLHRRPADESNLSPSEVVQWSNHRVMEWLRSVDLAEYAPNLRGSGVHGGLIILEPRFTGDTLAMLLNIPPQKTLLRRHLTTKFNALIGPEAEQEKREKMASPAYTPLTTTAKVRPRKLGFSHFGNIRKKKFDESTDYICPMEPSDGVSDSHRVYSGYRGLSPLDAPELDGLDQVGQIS
UniProt P29375: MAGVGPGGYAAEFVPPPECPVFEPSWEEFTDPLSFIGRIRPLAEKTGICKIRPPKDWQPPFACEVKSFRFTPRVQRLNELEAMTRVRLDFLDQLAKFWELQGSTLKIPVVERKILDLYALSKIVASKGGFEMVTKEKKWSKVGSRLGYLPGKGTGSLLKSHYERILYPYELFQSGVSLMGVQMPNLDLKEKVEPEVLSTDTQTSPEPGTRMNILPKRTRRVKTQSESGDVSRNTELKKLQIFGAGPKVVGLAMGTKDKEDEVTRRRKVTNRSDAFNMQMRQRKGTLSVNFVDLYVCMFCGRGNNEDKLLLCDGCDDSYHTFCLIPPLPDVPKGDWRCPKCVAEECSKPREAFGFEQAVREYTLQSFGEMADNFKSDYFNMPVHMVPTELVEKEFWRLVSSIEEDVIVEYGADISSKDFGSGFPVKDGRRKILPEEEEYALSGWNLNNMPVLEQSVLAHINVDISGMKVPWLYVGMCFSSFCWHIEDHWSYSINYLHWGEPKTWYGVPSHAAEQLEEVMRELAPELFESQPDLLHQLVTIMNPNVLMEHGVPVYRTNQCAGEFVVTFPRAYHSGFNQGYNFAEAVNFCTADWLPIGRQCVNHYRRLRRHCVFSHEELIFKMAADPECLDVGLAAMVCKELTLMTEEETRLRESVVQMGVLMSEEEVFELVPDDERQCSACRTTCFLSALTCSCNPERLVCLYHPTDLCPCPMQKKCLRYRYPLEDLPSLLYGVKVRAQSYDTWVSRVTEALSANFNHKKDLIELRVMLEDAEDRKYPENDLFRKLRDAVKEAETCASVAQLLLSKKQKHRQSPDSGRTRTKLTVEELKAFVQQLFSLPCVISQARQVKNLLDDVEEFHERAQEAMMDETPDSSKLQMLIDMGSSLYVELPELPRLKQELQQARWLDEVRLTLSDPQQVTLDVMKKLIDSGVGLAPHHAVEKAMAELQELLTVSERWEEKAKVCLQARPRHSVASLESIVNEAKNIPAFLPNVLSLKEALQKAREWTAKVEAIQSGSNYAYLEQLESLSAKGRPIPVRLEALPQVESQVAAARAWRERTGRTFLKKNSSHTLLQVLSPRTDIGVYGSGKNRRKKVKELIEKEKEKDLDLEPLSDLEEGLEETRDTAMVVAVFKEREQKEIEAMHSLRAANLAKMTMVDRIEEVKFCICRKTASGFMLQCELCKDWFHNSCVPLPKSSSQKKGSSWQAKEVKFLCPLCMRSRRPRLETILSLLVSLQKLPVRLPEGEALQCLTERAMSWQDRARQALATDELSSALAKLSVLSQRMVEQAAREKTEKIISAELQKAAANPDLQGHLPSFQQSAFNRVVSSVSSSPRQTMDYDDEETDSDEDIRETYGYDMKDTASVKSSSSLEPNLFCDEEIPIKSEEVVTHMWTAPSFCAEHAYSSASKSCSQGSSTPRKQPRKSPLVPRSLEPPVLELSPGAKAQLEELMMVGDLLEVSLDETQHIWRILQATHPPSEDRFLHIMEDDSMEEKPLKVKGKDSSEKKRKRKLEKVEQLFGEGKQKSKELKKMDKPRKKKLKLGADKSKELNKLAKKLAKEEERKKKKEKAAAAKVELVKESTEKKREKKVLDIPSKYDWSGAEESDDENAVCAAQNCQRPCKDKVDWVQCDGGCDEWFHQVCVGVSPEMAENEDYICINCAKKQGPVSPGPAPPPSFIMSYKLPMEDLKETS
UniProt Q6ZU35: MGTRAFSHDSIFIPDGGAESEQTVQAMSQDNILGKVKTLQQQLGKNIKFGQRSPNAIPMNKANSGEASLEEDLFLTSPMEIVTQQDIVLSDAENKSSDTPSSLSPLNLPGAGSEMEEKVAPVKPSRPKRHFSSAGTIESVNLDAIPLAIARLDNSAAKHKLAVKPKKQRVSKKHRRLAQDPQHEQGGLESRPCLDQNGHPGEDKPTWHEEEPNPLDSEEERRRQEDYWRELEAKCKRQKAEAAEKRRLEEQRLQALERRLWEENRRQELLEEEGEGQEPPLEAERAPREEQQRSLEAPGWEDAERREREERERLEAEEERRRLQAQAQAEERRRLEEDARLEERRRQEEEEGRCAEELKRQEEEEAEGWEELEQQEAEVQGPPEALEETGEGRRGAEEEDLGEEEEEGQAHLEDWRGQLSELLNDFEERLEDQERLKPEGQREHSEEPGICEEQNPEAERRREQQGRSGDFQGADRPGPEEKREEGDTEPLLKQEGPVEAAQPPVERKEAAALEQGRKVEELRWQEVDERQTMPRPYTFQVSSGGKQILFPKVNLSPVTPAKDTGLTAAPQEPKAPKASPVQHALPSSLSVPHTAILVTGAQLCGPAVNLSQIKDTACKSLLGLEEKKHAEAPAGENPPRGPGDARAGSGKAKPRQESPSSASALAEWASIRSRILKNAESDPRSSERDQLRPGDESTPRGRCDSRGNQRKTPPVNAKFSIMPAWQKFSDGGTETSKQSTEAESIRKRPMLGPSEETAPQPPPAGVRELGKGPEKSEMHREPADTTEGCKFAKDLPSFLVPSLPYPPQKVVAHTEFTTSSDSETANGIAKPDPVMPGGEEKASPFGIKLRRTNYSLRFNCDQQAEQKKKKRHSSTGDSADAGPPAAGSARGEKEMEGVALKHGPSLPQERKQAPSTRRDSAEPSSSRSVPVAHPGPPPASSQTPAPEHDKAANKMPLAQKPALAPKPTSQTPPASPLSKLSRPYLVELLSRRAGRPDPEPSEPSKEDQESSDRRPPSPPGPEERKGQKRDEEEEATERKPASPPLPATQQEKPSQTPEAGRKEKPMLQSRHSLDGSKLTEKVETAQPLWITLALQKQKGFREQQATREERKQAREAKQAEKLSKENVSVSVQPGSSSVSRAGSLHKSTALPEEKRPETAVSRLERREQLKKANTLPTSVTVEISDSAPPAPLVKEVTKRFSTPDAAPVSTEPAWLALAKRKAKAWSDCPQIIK
UniProt Q12849: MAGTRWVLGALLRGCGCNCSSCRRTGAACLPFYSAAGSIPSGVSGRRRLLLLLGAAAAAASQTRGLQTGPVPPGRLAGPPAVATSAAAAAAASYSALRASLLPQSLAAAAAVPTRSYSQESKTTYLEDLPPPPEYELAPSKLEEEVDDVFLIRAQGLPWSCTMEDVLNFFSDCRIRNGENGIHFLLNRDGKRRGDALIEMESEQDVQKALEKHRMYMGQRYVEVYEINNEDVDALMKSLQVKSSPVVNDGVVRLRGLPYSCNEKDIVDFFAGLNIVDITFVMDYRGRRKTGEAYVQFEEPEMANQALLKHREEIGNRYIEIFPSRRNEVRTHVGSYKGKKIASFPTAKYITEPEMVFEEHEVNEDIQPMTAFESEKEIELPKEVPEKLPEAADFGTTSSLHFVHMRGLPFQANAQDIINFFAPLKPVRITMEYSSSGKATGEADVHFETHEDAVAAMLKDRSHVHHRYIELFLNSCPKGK
UniProt P17480: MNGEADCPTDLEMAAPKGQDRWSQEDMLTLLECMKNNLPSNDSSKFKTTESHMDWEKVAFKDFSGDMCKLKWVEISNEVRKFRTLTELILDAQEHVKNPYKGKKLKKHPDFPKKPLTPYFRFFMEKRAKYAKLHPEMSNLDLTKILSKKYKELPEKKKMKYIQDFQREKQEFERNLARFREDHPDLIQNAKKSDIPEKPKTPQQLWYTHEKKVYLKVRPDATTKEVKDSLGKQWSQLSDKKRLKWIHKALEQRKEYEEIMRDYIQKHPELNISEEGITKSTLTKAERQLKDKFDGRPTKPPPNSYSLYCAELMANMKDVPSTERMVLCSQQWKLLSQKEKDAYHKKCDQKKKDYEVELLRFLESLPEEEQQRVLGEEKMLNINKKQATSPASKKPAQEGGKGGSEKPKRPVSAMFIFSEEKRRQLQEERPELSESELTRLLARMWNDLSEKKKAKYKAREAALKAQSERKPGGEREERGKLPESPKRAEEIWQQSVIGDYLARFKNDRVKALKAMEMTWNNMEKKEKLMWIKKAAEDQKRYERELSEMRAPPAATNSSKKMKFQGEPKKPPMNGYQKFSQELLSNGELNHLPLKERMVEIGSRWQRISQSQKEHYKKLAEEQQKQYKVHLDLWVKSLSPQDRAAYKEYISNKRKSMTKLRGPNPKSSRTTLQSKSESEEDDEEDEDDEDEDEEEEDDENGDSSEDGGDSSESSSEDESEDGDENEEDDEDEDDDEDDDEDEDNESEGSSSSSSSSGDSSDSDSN

Compound: Nc1ncnc2c1ncn2[C@@H]1O[C@H](COP(=O)(O)OP(=O)(O)NP(=O)(O)O)[C@@H](O)[C@H]1O [adenylyl imidodiphosphate]
Experiment: NP40-soluble protein abundance relative to vehicle (solubility fold change) (ratio); higher = more soluble protein in presence of AMP-PNP
Outline: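 Eight concentrations, 0.1 to 10 mM, were tested on Jurkat crude lysate for 10 min at room temperature and then 3 min at 37 °C, in three independent experiments. The lysate was solubilised with 0.8% NP40 and benzonase, ultracentrifuged, and the supernatant TMT-labelled for LC-MS/MS. Each value is the fold change against the detergent-processed vehicle in its own replicate, from vsn-normalised intensities.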

Target | NP40-soluble protein abundance (concentration: 0.1mM) | NP40-soluble protein abundance (concentration: 0.5mM)
E7EQR8 and related entries (UniProt Q9GZM5) | 1.01 ± 0.021 | 1.01 ± 0.02
E7EQV9 and related entries (UniProt P61313) | 1.08 ± 0.062 | 1.04 ± 0.057
E9PBS1 and related entries (UniProt P22234) | 1.01 ± 0.014 | 1.01 ± 0.031
G3V3M6 and related entries (UniProt P27695) | 0.994 ± 0.098 | 1.06 ± 0.094
E9PHM2 and related entries (UniProt Q15031) | 1.01 ± 0.019 | 0.981 ± 0.024
E7EUY3 and related entries (UniProt P05166) | 0.979 ± 0.022 | 0.97 ± 0.023
F5H5P4 and related entries (UniProt P15498) | 1.01 ± 0.031 | 0.982 ± 0.053
F5GXF9 and related entries (UniProt P51825) | 1.01 ± 0.044 | 1.01 ± 0.025
E9PIE4 and related entries (UniProt Q9Y6C9) | 1.02 ± 0.056 | 0.997 ± 0.09
E9PP16 and related entries (UniProt Q8ND30) | 0.999 ± 0.027 | 0.993 ± 0.019
F5H6I7 and related entries (UniProt Q6DD88) | 0.9872 ± 0.0028 | 1.038 ± 0.0067
F8WB06 and related entries (UniProt Q99700) | 0.974 ± 0.029 | 1.03 ± 0.043
F5H1F7 and related entries (UniProt P29375) | 0.9995 ± 0.0079 | 1.011 ± 0.01
E9PSH8 and related entries (UniProt P07766) | 0.9927 ± 0.0038 | 1.03 ± 0.029
E7EQU1 and related entries (UniProt O15347) | 1.01 ± 0.097 | 1.18 ± 0.18
F6VUX8 and related entries (UniProt Q9HC77) | 1.009 ± 0.0092 | 1.03 ± 0.015
F2Z2X4 and related entries (UniProt Q9C0E2) | 1 ± 0.049 | 0.965 ± 0.066
E9PGT3 and related entries (UniProt Q15418) | 1.01 ± 0.051 | 0.997 ± 0.075
F5H514 and related entries (UniProt O95267) | 0.987 ± 0.013 | 1.01 ± 0.024
E9PJ81 and related entries (UniProt Q04323) | 1 ± 0.023 | 1.01 ± 0.041
E5RIS3 and related entries (UniProt Q8TCF1) | 0.98 ± 0.031 | 0.957 ± 0.021
E7EQI7 and related entries (UniProt Q12768) | 1.01 ± 0.05 | 0.993 ± 0.041

Target | NP40-soluble protein abundance (concentration: 0.1mM) | NP40-soluble protein abundance (concentration: 0.5mM)
E9PHI4 and related entries (UniProt O94901) | 1.06 ± 0.037 | 0.99 ± 0.014
F5H1N7 and related entries (UniProt Q6ZU35) | 1.01 ± 0.022 | 1.04 ± 0.036
E7EM83 and related entries (UniProt Q92932) | 1.0349 ± 3.5e-05 | 1.01 ± 0.012
F5H5I6 and related entries (UniProt Q12849) | 0.979 ± 0.027 | 0.988 ± 0.011
E9PI30 and related entries (UniProt P56202) | 0.943 ± 0.015 | 0.964 ± 0.019
F5GXC5 and related entries (UniProt Q8TB96) | 1.01 ± 0.011 | 1.01 ± 0.0092
E9PKQ5 and related entries (UniProt Q9GZT6) | 1 ± 0.025 | 0.999 ± 0.049
E9PLL0 and related entries (UniProt Q96EY5) | 1.02 ± 0.047 | 1.023 ± 0.0084
E7EQL8 and related entries (UniProt Q96RT7) | 1.01 ± 0.025 | 0.9862 ± 0.0057
F8W8G5 and related entries (UniProt P10242) | 1.02 ± 0.043 | 0.998 ± 0.031
E9PSD3 and related entries (UniProt O43427) | 0.977 ± 0.033 | 0.989 ± 0.066
E7EPP6 and related entries (UniProt O14757) | 1.01 ± 0.018 | 0.961 ± 0.026
F5GXX6 and related entries (UniProt Q9NQ89) | 0.9466 ± 0.00096 | 0.9697 ± 0.0083
F8W1A0 and related entries (UniProt P36873) | 0.996 ± 0.014 | 0.962 ± 0.022
E7EX17 and related entries (UniProt P23588) | 0.985 ± 0.037 | 1.02 ± 0.07
F5H136 and related entries (UniProt P17987) | 1.02 ± 0.041 | 0.991 ± 0.035
E9PF18 and related entries (UniProt Q16836) | 0.998 ± 0.039 | 1.03 ± 0.03
F5H0R1 and related entries (UniProt Q9H6E5) | 0.984 ± 0.027 | 0.951 ± 0.035
F8VU39 and related entries (UniProt Q9UIF9) | 0.994 ± 0.035 | 1 ± 0.037
E9PLT2 and related entries (UniProt P17480) | 0.9843 ± 0.0093 | 1.02 ± 0.06
E9PS74 and related entries (UniProt Q8NBI5) | 1.01 ± 0.037 | 0.988 ± 0.032

Two neighbouring records already listed, for reference:
Target | NP40-soluble protein abundance (concentration: 0.1mM) | NP40-soluble protein abundance (concentration: 0.5mM)
E9PHI4 and related entries (UniProt O94901) | 1.06 ± 0.037 | 0.99 ± 0.014
F5H1N7 and related entries (UniProt Q6ZU35) | 1.01 ± 0.022 | 1.04 ± 0.036
